Results are given in words; binding and its absence hold for the method and conditions named. Some entries that bind do so weakly or less than the wild type.

Sequences of proteins named here, by UniProt entry; tags and fusion partners are left off. Residues count along the entry.
UniProt P08637, residues 17-254: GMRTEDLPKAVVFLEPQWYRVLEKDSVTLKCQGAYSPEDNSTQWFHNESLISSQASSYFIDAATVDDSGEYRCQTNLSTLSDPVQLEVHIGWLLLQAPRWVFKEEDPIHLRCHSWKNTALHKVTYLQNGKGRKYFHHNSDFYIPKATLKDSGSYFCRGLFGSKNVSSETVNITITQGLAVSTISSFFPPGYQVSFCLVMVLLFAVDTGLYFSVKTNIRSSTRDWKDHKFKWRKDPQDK

This passage reports binding results from CN108383911A.

For experiment [1], the target named is NK细胞表面抗原CD16a, on NK cells (UniProt P08637). As to the kind of experiment: flow cytometry, 10 nM bispecific antibody on 1x10^6 NK cells, biotin goat anti-human IgG F(ab')2 + PE-streptavidin.
Experiment [2] has the same target. As to the kind of experiment: flow cytometry on NK cells (legend of Figure 4).

B1: GPC3-CD16A双特异性抗体 (bispecific antibody)
chain: DVVMTQSPLSLPVTPGEPASISCRSSQSLVHSNGNTYLHWYLQKPGQSPQLLIYKVSNRFSGVPDRFSGSGSGTDFTLKISRVEAEDVGVYYCSQNTHVPPTFGQGTKLEIKGGGGSQVTLRESGPALVKPTQTLTLTCTFSGFSLSTSGMGVGWIRQPPGKALEWLAHIWWDDDKRYNPALKSRLTISKDTSKNQVVLTMTNMDPVDTATYYCARINPAWFAYWGQGTLVTVSSGQPREPQVYTLPPSREEMTKNQVSLTCLVKGFYPSDIAVEWESNGQPENNYKTTPPVLDSDGSFFLYSKLTVDKSRWQQGNVFSCSVMHEALHNHYTQKSLSLSPGKDTVLTQSPASLAVSLGQRATISCKASQSVDFDGHSFMNWYQQKPGQPPKLLIYTTSNLESGIPASFSASGSGTDFTLNIHPVEEEDTATYYCQQSNEDPYTFGGGTKLEIKGGGGSQVTLRESGPALVKPTQTLTLTCTFSGFSLSTSGMGVGWIRQPPGKALEWLAHIWWDDDKRYNPALKSRLTISKDTSKNQVVLTMTNMDPVDTATYYCARINPAWFAYWGQGTLVTVSS
As to B1, the binding result in experiment [1] and in experiment [2] was “binds” in each case.
